Taken from: PubChem BioAssay AID1259405 (NCATS, 2018)
Assay: 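Mouse-designed siRNAs used to find CHO productivity engineering targets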 (primary screen). Cells: Chinese hamster CHO-K1 ovary cells with stable secreted eGFP expression. Reagents: single siRNA against mouse genes, 0.8 pmol siRNA per well (2 µl of 400 nM stock). Time to read-out: 3 days. Detection: 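Per-well intracellular GFP measured by laser scanning cytometry, plus viability from ATP luminescence, each relative to plate median of non-targeting control wells, in %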. Scale: GFP, % of control: higher = more GFP per well, higher productivity; viability (ATP), % of control: higher = more viable cells (more ATP). Rule for the call: 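a knock-down is called active if GFP reaches 120% or more of non-targeting control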.
Shown is a random part of about 50,000 deposited reagents. Of all reagents, about 4,000 (8%) were called active. 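Mouse siRNA library applied to hamster cells; one well for each siRNA.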 Entries without a mark were called inactive. The numbers tell different reagents against one gene apart.

no.	Gene	siRNA no.	GFP, % of control	viability (ATP), % of control
1	Klhl10	1	80.3	46.2
2	Klhl10	2	77.8	81.8
3	Drp2	1	71.4	106
4	Drp2	2	68.3	64.9
5	Wnt2b	1	75.7	85
6	Wnt2b	2	36.2	50.3
7	Wnt2b	3	80.1	57.1
8	Ccnb3	1	78.6	87
9	Ccnb3	2	94.4	81.3
10	Il23a	1	82.9	56.8
11	Il23a	2	40.4	40.3
12	Il23a	3	61.5	66.6
13	Rnf149	1	87.2	77.7
14	Rnf149	2	52.5	47.2
15	Rnf149	3	46.5	58
16	Rnf182	1	79.6	79.8
17	Rnf182	2	97.6	80.4
18	Rnf182	3	115	139
19	Pcdhga6	1	65	64.2
20	Pcdhga6	2	70.8	77.7
21	Pcdhga6	3	84.2	44.4
22	Nwd2	1	50.7	26.9
23	Nwd2	2	60.1	66.8
24	Nwd2	3	85.8	49.4
25	Kctd9	1	79.2	87.8
26	Kctd9	2	37.1	31.3
27	Kctd9	3	45.5	54
28	Ubald2	1	52.1	76.8
29	Ubald2	2	104	77.5
30	Ubald2	3	97.4	68.4
31	Kcnab2	1	84.8	71.3
32	Kcnab2	2	62.5	50.1
33	Kcnab2	3	31.7	41.3
34	Ifi30	1	65.5	96.5
35	Ifi30	2	65.4	66.9
36	Ifi30	3	62.6	48.1
37	Crhr2	1	79.5	85.4
38	Crhr2	2	49	67.2
39	Crhr2	3	44.7	35
40	Fcgr3	1	113	103
41	Fcgr3	2	57.2	73.5
42	Fcgr3	3	81.3	54.6
43	Atp5if1	1	81	74.9
44	Atp5if1	2	86.2	106
45	Atp5if1	3	43.3	68.9
46	H1f8	1	46.3	86.7
47	H1f8	2	103	86.6
48	H1f8	3	95.1	53.3
49	Evl	1	55.4	71.7
50	Evl	2	82.6	95
51	Evl	3	91	67.3
52	Or8b1c	1	121 (active)	94.9
53	Or8b1c	2	77	79.1
54	Or8b1c	3	65	68.8
55	Podn	1	72.8	55.7
56	Podn	2	48.8	87.1
57	Podn	3	38.6	51.4

6 entries already listed, arranged by “viability (ATP), % of control”, descending.
Gene	siRNA no.	GFP, % of control	viability (ATP), % of control
Ifi30	1	65.5	96.5
Ubald2	2	104	77.5
Kcnab2	1	84.8	71.3
Ubald2	3	97.4	68.4
Kcnab2	2	62.5	50.1
Kcnab2	3	31.7	41.3
